Some entries share one result that the patent states for a list of compounds.
Assay: Energy balance (carcass energy content, energy intake, energy expenditure) of treated male Wistar rats
Type: in vivo
Settings: 10-day treatment; versus control group
From the text: Forty-five day-old male Wistar rats were used. The rats were kept in collective cages in a light cycle, temperature, and humidity-controlled environment. They were fed tap water and a self-selected cafeteria diet (containing an excess of tasty, energy-dense foods, as well as standard chow) for 45 additional days. Then they were subjected to a 5-day diet adaptation period, in which they had rat chow as the sole food available. At this point, the rats weighed 350-370 g and had significant amounts of body fat. Maintaining the availability of rat chow (daily consumption by the group was recorded) and tap water, body weight was recorded daily. The animals were given a daily gavage of either 0.2 mL of sunflower oil or the same vehicle containing oleoyl-estrone to a daily dose of 10 micromol/kg of body weight. […]
Samples of the rat paste were dried and used for the estimation of their caloric content using a bomb calorimeter. The initial values for lipid content were calculated from the corresponding in vivo body weights at the beginning of the experiment and applying to all the animals the mean percentage of lipid content found in the control (vehicle only) group at the end of the experiment. […] Likewise, the energy content of the pellet diet was also measured and used to estimate the energy intake of the animals. […]

CCCCCCCC/C=C\CCCCCCCC(=O)Oc1ccc2c(c1)CC[C@@H]1[C@@H]2CC[C@]2(C)C(=O)CC[C@@H]12 [oleoyl-estrone, [3(Z)]-3-[(1-oxo-9-octadecenyl)oxy]-estra-1,3,5(10)-trien-17-one]
decrease in food consumption: 31-32%

From US20070049569A1, “Methods of using fatty-acid esters of estrogens and thermogenic compounds for reducing the body weight of a mammal and compositions containing the same” (Oleoyl-Estrone Developments SL, priority 2004, published 2007)
